# Data taken from publication PMC8889267.
# Results are given in words; binding and its absence hold for the method and conditions named. In cells and extracts the contact can be indirect. Here binding means that the protein was enriched with, or labelled near, the bait; the list need not be complete.
# T1: CLPC1-TRAP-STREPII (Arabidopsis thaliana) (UniProt Q9FI56)
# T1 sequence: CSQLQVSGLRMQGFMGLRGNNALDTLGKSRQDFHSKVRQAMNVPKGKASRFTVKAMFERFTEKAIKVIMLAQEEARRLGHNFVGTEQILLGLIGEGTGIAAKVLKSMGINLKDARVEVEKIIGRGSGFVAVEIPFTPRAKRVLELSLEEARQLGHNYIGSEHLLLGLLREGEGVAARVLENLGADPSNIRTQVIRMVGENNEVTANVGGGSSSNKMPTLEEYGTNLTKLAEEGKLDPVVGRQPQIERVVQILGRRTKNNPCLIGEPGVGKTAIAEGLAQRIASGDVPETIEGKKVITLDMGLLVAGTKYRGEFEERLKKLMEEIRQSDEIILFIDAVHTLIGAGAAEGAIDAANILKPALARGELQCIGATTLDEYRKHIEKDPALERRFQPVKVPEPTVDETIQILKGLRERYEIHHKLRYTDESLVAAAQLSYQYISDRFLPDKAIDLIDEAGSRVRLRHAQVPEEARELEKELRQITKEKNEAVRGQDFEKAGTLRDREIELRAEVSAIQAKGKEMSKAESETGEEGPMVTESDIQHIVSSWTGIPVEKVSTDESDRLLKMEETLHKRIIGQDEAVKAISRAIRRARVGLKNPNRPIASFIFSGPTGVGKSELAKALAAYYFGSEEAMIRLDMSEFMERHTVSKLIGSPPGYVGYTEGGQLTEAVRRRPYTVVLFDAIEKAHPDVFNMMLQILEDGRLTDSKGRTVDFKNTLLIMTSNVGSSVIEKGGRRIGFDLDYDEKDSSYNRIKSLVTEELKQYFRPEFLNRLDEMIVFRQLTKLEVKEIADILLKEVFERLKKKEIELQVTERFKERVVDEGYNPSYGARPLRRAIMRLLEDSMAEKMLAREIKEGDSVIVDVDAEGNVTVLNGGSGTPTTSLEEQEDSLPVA
# B1: nucleoid protein (pTAC10) (protein, UniProt F4JF21 41-668)
# chain: GFSSDEFPVDETFLEKFGPKDKDTEDEARRRNWIERGWAPWEEILTPEADFARKSLNEGEEVPLQSPEAIEAFKMLRPSYRKKKIKEMGITEDEWYAKQFEIRGDKPPPLETSWAGPMVLRQIPPRDWPPRGWEVDRKELEFIREAHKLMAERVWLEDLDKDLRVGEDATVDKMCLERFKVFLKQYKEWVEDNKDRLEEESYKLDQDFYPGRRKRGKDYEDGMYELPFYYPGMVCEGTVTTLHLYQGAFVDIGGVHEGWVPIKGNDWFWIRHFIKVGMHVIVEITAKRDPYRFRFPLELRFVHPNIDHMIFNKFDFPPIFHRDGDTNPDEIRRDCGRPPEPRKDPGSKPEEEGLLSDHPYVDKLWQIHVAEQMILGDYEANPAKYEGKKLSELSDDEDFDEQKDIEYGEAYYKKTKLPKVILKTSVKELDLEAALTERQHHNKLMMEAKARGEGYKIDKLRRNIEMDEYDFLHWRRSLEEREALLRDISSRQALGLPLEEPGRYKPGSFFGKDQYDPTSALYQYDYWGEPKNSEISKQERMKDAHNKSIVGKGNVWYDMSYDDAIKQTIEKRKEGSTLASQEEETESEEEEEDDDDFDDFDYSILSDESSIGYSEQQPLVNGTQVLTD
# B2: tRNA/rRNA methyltransferase (AT4G36390.1) (protein, UniProt Q8H0V1 1-640)
# chain: MASSSLSSLSSILSNPHGCSLCFKASTQRCFALRFLSSKATHASSSSSSALLPRCRSSTHRLTQKPINRKKGFSLNLSRSFSISQIASSGKFDGPSLHQFVSNAQAHASLTTPETESESTLDSDIASKGRIYHETYGCQMNINDMEIVLAIMKNSGYKEVVTDPESAEVIFVNTCAIRENAEQRVWQRLNYFWFLKREWKVNAATGRAKSLKPPKVVVLGCMAERLKDKILDSDKMVDVVCGPDAYRDLPRLLEEVDYGQKGINTLLSLEETYADISPVRISENSITAFVSVMRGCNNMCAFCIVPFTRGRERSRPVESIIREVGELWESGVKEVTLLGQNVNSYNDDSADRESGANWEYSEGFSSRCKVKNMGLRFADLLDRLSVEFPEMRFRFTSPHPKDYPDELLYLMRDRHNICNLIHLPAQSGNSRILEQMRRGYTREAYLDLVKKIRSIIPDVAITSDFITGFCGETEEEHQETLSLVRAVGYDMAYMFAYSMREKTHAHRNYTDDVPEEVKQRRLTELIDAFRETTGPCYDSQVGSTQLVLVEGPNKRAPETELIGKTDKGHRVSFVTKPLFDKACLLDGDDLKRNPGIGDFVEVQIEKSTRASLFGEALAISKMSLFHDVGVVDAVVASCAS
# B3: DEAD box RNA helicase, RH39 (nara12) 23S rRNA processing (protein, UniProt Q56X76 1-621)
# chain: MVGASRTILSLSLSSSLFTFSKIPHVFPFLRLHKPRFHHAFRPLYSAAATTSSPTTETNVTDPDQLKHTILLERLRLRHLKESAKPPQQRPSSVVGVEEESSIRKKSKKLVENFQELGLSEEVMGALQELNIEVPTEIQCIGIPAVMERKSVVLGSHTGSGKTLAYLLPIVQLMREDEANLGKKTKPRRPRTVVLCPTRELSEQVYRVAKSISHHARFRSILVSGGSRIRPQEDSLNNAIDMVVGTPGRILQHIEEGNMVYGDIAYLVLDEADTMFDRGFGPEIRKFLAPLNQRALKTNDQGFQTVLVTATMTMAVQKLVDEEFQGIEHLRTSTLHKKIANARHDFIKLSGGEDKLEALLQVLEPSLAKGSKVMVFCNTLNSSRAVDHYLSENQISTVNYHGEVPAEQRVENLKKFKDEEGDCPTLVCTDLAARGLDLDVDHVVMFDFPKNSIDYLHRTGRTARMGAKGKVTSLVSRKDQMLAARIEEAMRNNESLESLTTDNVRRDAARTHITQEKGRSVKQIREVSKQRNSRDKPSSSSPPARSTGGKTPVRKSSSSSFSKPRKASSPPEKSSKPKRKILKTVGSRSIAARGKTGSDRRPGKKLSVVGFRGKSSSARAS
# B4: DUF760-6 (clade 1) (protein, UniProt Q9LVJ0 76-421)
# chain: ASSASNDASSGSSPKPIAPLQLQSPAGQFLSQILVSHPHLVPAAVEQQLEQLQTDRDSQGQNKDSASVPGTDIVLYRRIAELKENERRRTLEEILYALVVQKFMEANVSLVPSVSPSSDPSGRVDTWPTKVEKLERLHSPEMYEMIHNHLALILGSRMGDLNSVAQISKLRVGQVYAASVMYGYFLKRVDQRFQLEKTMKILPGGSDESKTSVEQAEGTATYQAAVSSHPEVGAFAGGVSAKGFGSEIKPSRLRSYVMSFDAETLQRYATIRSREAVGIIEKHTEALFGKPEIVITPEGTVDSSKDEQIKISFGGMKRLVLEAVTFGSFLWDVESHVDARYHFVLN
# Target: T1, CLPC1-TRAP-STREPII (Arabidopsis thaliana)
# Test: affinity purification with mass spectrometry; STREPII-tagged CLPC1-WT or CLPC1-TRAP from soluble leaf proteome of transgenic Arabidopsis rosettes, nondenaturing; StrepTactinXT beads, 50 mM Hepes-KOH pH 8.0, 15% glycerol, 10 mM MgCl2, 75 mM NaCl, eluted with 2.5 mM biotin; SDS-PAGE, in-gel trypsin digest, LC-MS/MS, spectral counting; three biological replicates; CGEP-STREP eluates as negative control
row,binding,Binder
1,binds,B1
2,binds,B2
3,binds,B3
4,binds,B4
